Test results: publication PMC3128695
These are yes or no findings as the source states them, for the method shown. Some entries that bind do so weakly or less than the wild type.

Sequences of proteins named here, by UniProt entry; tags and fusion partners are left off.
UniProt P06223: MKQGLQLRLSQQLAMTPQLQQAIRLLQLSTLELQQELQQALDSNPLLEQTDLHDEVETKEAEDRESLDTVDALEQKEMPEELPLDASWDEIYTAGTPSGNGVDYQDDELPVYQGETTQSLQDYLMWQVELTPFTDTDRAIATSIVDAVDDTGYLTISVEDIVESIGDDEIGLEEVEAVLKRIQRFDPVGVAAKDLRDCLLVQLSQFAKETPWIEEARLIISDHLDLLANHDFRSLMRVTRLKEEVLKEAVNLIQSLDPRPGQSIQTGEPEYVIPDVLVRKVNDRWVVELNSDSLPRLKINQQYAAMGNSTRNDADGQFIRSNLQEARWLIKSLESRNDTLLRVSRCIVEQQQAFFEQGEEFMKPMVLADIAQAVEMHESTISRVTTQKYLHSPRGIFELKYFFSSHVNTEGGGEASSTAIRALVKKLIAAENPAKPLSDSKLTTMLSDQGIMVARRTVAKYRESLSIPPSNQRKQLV

Biological target: PspF(1–275)WT (AAA+ domain of PspF) (E. coli) (UniProt P37344)
Experiment: native gel or EMSA; trapping with ADP-AlF: 1 μM radiolabelled HMK-σ^54, 2 μM PspF1–275 WT or W56A, different concentrations of PspAFL or fragments, 4 mM ADP, 5 mM NaF, 0.4 mM AlCl3, 37 °C; native 4.5% polyacrylamide gel in TG buffer; both purified

binding: binds
Substance: HMK-σ^54 (radiolabelled) (from UniProt P06223 1-477)
